From PubChem BioAssay AID188 (DTP/NCI, 2004)
Shown are survivors of the treated group in tumour-free mice. Counts of survivors are from the toxicity check (mostly the fifth day) where no day follows; animals may have died later. Schedules are NCI's codes, taken here to give the interval after Q, in days (D) or hours (H), and the number of doses after X. Some entries hold several experiments; the results are listed from low to high.

Test system: CD2F1 mice, nontumored, toxicity/survival
Assay: NCI In Vivo Anticancer Drug Screen. Data for tumor model Nontumored Animals (Toxicity Test) in CD2F1 (CDF1) mice
Settings: vehicle: saline

CC(=O)NC(CCC(=O)C=[N+]=N)C(=O)O (stereo not given)
survivor count (dose: 0.01 mg/kg/injection, schedule: Q03HX016 (ip)): 8 of 8 | survivor count (dose: 0.01 mg/kg/injection, schedule: Q03HX024 (ip)): 8 of 8 | survivor count (dose: 0.03 mg/kg/injection, schedule: Q03HX008 (ip)): 8 of 8 | survivor count (dose: 0.03 mg/kg/injection, schedule: Q03HX016 (ip)): 8 of 8 | survivor count (dose: 0.03 mg/kg/injection, schedule: Q03HX024 (ip)): 8 of 8 | survivor count (dose: 0.06 mg/kg/injection, schedule: Q03HX008 (ip)): 8 of 8 | survivor count (dose: 0.06 mg/kg/injection, schedule: Q03HX016 (ip)): 8 of 8 | survivor count (dose: 0.06 mg/kg/injection, schedule: Q03HX024 (ip)): 8 of 8 | survivor count (dose: 0.13 mg/kg/injection, schedule: Q01DX005 (iv)): 8 of 8 | survivor count (dose: 0.13 mg/kg/injection, schedule: Q01DX009 (ip)): 8 of 8 | survivor count (dose: 0.13 mg/kg/injection, schedule: Q01DX009 (oral)): 8 of 8 | survivor count (dose: 0.13 mg/kg/injection, schedule: Q03HX008 (ip)): 8 of 8 | survivor count (dose: 0.13 mg/kg/injection, schedule: Q03HX016 (ip)): 8 of 8 | survivor count (dose: 0.13 mg/kg/injection, schedule: Q03HX024 (ip)): 8 of 8 | survivor count (dose: 0.13 mg/kg/injection, schedule: Q04DX003 (ip)): 8 of 8 | survivor count (dose: 0.13 mg/kg/injection, schedule: Q08DX002 (ip)): 8 of 8 | survivor count (dose: 0.25 mg/kg/injection, schedule: Q01DX001 (ip)): 8 of 8 | survivor count (dose: 0.25 mg/kg/injection, schedule: Q01DX001 (iv)): 8 of 8 | survivor count (dose: 0.25 mg/kg/injection, schedule: Q01DX005 (iv)): 8 of 8 | survivor count (dose: 0.25 mg/kg/injection, schedule: Q01DX009 (ip)): 8 of 8 | survivor count (dose: 0.25 mg/kg/injection, schedule: Q01DX009 (oral)): 8 of 8 | survivor count (dose: 0.25 mg/kg/injection, schedule: Q03HX008 (ip)): 8 of 8 | survivor count (dose: 0.25 mg/kg/injection, schedule: Q03HX016 (ip)): 8 of 8 | survivor count (dose: 0.25 mg/kg/injection, schedule: Q03HX024 (ip)): 8 of 8 | survivor count (dose: 0.25 mg/kg/injection, schedule: Q04DX003 (ip)): 8 of 8 | survivor count (dose: 0.25 mg/kg/injection, schedule: Q08DX002 (ip)): 8 of 8 | survivor count (dose: 0.5 mg/kg/injection, schedule: Q01DX001 (ip)): 8 of 8 | survivor count (dose: 0.5 mg/kg/injection, schedule: Q01DX001 (iv)): 8 of 8 | survivor count (dose: 0.5 mg/kg/injection, schedule: Q01DX005 (iv)): 8 of 8 | survivor count (dose: 0.5 mg/kg/injection, schedule: Q01DX009 (ip)): 8 of 8 | survivor count (dose: 0.5 mg/kg/injection, schedule: Q01DX009 (oral)): 8 of 8 | survivor count (dose: 0.5 mg/kg/injection, schedule: Q03HX008 (ip)): 8 of 8 | survivor count (dose: 0.5 mg/kg/injection, schedule: Q03HX016 (ip)): 8 of 8 | survivor count (dose: 0.5 mg/kg/injection, schedule: Q03HX024 (ip)): 8 of 8 | survivor count (dose: 0.5 mg/kg/injection, schedule: Q04DX003 (ip)): 8 of 8 | survivor count (dose: 0.5 mg/kg/injection, schedule: Q06HX008 (ip)): 8 of 8 | survivor count (dose: 0.5 mg/kg/injection, schedule: Q06HX012 (ip)): 8 of 8 | survivor count (dose: 0.5 mg/kg/injection, schedule: Q08DX002 (ip)): 8 of 8 | survivor count (dose: 1.0 mg/kg/injection, schedule: Q01DX001 (ip)): 8 of 8 | survivor count (dose: 1.0 mg/kg/injection, schedule: Q01DX001 (iv)): 8 of 8 | survivor count (dose: 1.0 mg/kg/injection, schedule: Q01DX001 (oral)): 8 of 8 | survivor count (dose: 1.0 mg/kg/injection, schedule: Q01DX005 (ip)): 8 of 8 | survivor count (dose: 1.0 mg/kg/injection, schedule: Q01DX005 (iv)): 8 of 8 | survivor count (dose: 1.0 mg/kg/injection, schedule: Q01DX009 (ip)): 8 of 8 | survivor count (dose: 1.0 mg/kg/injection, schedule: Q01DX009 (oral)): 8 of 8 | survivor count (dose: 1.0 mg/kg/injection, schedule: Q03HX008 (ip)): 8 of 8 | survivor count (dose: 1.0 mg/kg/injection, schedule: Q03HX016 (ip)): 8 of 8 | survivor count (dose: 1.0 mg/kg/injection, schedule: Q03HX024 (ip)): 8 of 8 | survivor count (dose: 1.0 mg/kg/injection, schedule: Q04DX003 (ip)): 8 of 8 | survivor count (dose: 1.0 mg/kg/injection, schedule: Q06HX008 (ip)): 8 of 8 | survivor count (dose: 1.0 mg/kg/injection, schedule: Q06HX012 (ip)): 8 of 8 | survivor count (dose: 1.0 mg/kg/injection, schedule: Q08DX002 (ip)): 8 of 8 | survivor count (dose: 2.0 mg/kg/injection, schedule: Q01DX001 (ip)): 8 of 8 | survivor count (dose: 2.0 mg/kg/injection, schedule: Q01DX001 (iv)): 8 of 8 | survivor count (dose: 2.0 mg/kg/injection, schedule: Q01DX001 (oral)): 8 of 8 | survivor count (dose: 2.0 mg/kg/injection, schedule: Q01DX005 (ip)): 6 of 8 | survivor count (dose: 2.0 mg/kg/injection, schedule: Q01DX005 (iv)): 7 of 8 and 8 of 8 | survivor count (dose: 2.0 mg/kg/injection, schedule: Q01DX009 (ip)): 8 of 8 | survivor count (dose: 2.0 mg/kg/injection, schedule: Q03HX008 (ip)): 8 of 8 | survivor count (dose: 2.0 mg/kg/injection, schedule: Q03HX016 (ip)): 8 of 8 | survivor count (dose: 2.0 mg/kg/injection, schedule: Q03HX024 (ip)): 8 of 8 | survivor count (dose: 2.0 mg/kg/injection, schedule: Q04DX003 (ip)): 8 of 8 | survivor count (dose: 2.0 mg/kg/injection, schedule: Q06HX008 (ip)): 8 of 8 | survivor count (dose: 2.0 mg/kg/injection, schedule: Q06HX012 (ip)): 8 of 8 | survivor count (dose: 2.0 mg/kg/injection, schedule: Q08DX002 (ip)): 8 of 8 | survivor count (dose: 4.0 mg/kg/injection, schedule: Q01DX001 (ip)): 8 of 8 | survivor count (dose: 4.0 mg/kg/injection, schedule: Q01DX001 (iv)): 8 of 8 | survivor count (dose: 4.0 mg/kg/injection, schedule: Q01DX001 (oral)): 8 of 8 | survivor count (dose: 4.0 mg/kg/injection, schedule: Q01DX005 (ip)): 7 of 8 | survivor count (dose: 4.0 mg/kg/injection, schedule: Q01DX005 (iv)): 7 of 8 | survivor count (dose: 4.0 mg/kg/injection, schedule: Q01DX009 (ip)): 7 of 8 | survivor count (dose: 4.0 mg/kg/injection, schedule: Q04DX003 (ip)): 8 of 8 | survivor count (dose: 4.0 mg/kg/injection, schedule: Q06HX008 (ip)): 8 of 8 | survivor count (dose: 4.0 mg/kg/injection, schedule: Q06HX012 (ip)): 8 of 8 | survivor count (dose: 4.0 mg/kg/injection, schedule: Q08DX002 (ip)): 8 of 8 | survivor count (dose: 8.0 mg/kg/injection, schedule: Q01DX001 (ip)): 8 of 8 | survivor count (dose: 8.0 mg/kg/injection, schedule: Q01DX001 (oral)): 7 of 8 | survivor count (dose: 8.0 mg/kg/injection, schedule: Q01DX005 (ip)): 6 of 8 | survivor count (dose: 8.0 mg/kg/injection, schedule: Q01DX009 (ip)): 4 of 8 | survivor count (dose: 8.0 mg/kg/injection, schedule: Q04DX003 (ip)): 8 of 8 | survivor count (dose: 8.0 mg/kg/injection, schedule: Q08DX002 (ip)): 8 of 8 | survivor count (dose: 16.0 mg/kg/injection, schedule: Q01DX001 (ip)): 8 of 8 | survivor count (dose: 16.0 mg/kg/injection, schedule: Q01DX005 (ip)): 4 of 8 | survivor count (dose: 16.0 mg/kg/injection, schedule: Q04DX003 (ip)): 8 of 8 | survivor count (dose: 16.0 mg/kg/injection, schedule: Q08DX002 (ip)): 8 of 8
